Source: article PMC11721672 (Molecules, 2024)
HELM strings list residues between dots; [ac] is acetyl, [am] amide, other brackets name non-standard units. Square brackets hold non-standard residues; d marks the D form. Ends that are not written are not given here. Bip = N[C@@H](Cc1ccc(-c2ccccc2)cc1)C(=O)O; αMePhe(2-F) = C[C@](N)(Cc1ccccc1F)C(=O)O; Aib = CC(C)(N)C(=O)O

Assay: general procedure: Fmoc solid-phase peptide synthesis; Amphispheres 40 RAM, 75–150 µM resin (Agilent Technologies); HCTU/6-Cl-HOBt/DIEA; HATU/HOAt/DIEA; PyOxim/DIEA then HCTU/HOAt/DIEA
Details: whole synthesis, 214 nm

Substance: Aib-Aib-Glu-Gly-Thr-a-Me-Phe(2-F)-Thr-Ser-Asp-Bip-Bip
- final HPLC purity: 96.0%

Substance: H[Aib][Aib]GT[αMePhe(2-F)]TSD[Bip][Bip]
- final HPLC purity: 93.0%

Substance: His-Aib-Glu-Gly-Thr-a-Me-Phe(2-F)-Thr-Ser-Asp-Bip-Bip
- final HPLC purity: 92.5%

Substance: PEPTIDE1{A.[XAib].E.G.T.[XPhe2F].T.S.D.[XBip].[XBip].[am]}$$$$V2.0
- final HPLC purity: 93%

Substance: PEPTIDE1{H.A.E.G.T.[XPhe2F].T.S.D.[XBip].[XBip].[am]}$$$$V2.0
- final HPLC purity: 90%

Substance: PEPTIDE1{H.[XAib].A.G.T.[XPhe2F].T.S.D.[XBip].[XBip].[am]}$$$$V2.0
- final HPLC purity: 84%

Substance: PEPTIDE1{H.[XAib].E.A.T.[XPhe2F].T.S.D.[XBip].[XBip].[am]}$$$$V2.0
- final HPLC purity: 93%

Substance: PEPTIDE1{H.[XAib].E.G.A.[XPhe2F].T.S.D.[XBip].[XBip].[am]}$$$$V2.0
- final HPLC purity: 94%

Substance: PEPTIDE1{H.[XAib].E.G.T.A.T.S.D.[XBip].[XBip].[am]}$$$$V2.0
- final HPLC purity: 93%

Substance: PEPTIDE1{H.[XAib].E.G.T.F.T.S.D.[XBip].[XBip].[am]}$$$$V2.0
- final HPLC purity: 90.0%

Substance: PEPTIDE1{H.[XAib].E.G.T.W.T.S.D.[XBip].[XBip].[am]}$$$$V2.0
- final HPLC purity: 96.0%

Substance: PEPTIDE1{H.[XAib].E.G.T.Y.T.S.D.[XBip].[XBip].[am]}$$$$V2.0
- final HPLC purity: 93.0%

Substance: PEPTIDE1{H.[XAib].E.G.T.[XAib].T.S.D.[XBip].[XBip].[am]}$$$$V2.0
- final HPLC purity: 95.0%

Substance: PEPTIDE1{H.[XAib].E.G.T.[XBip].T.S.D.[XBip].[XBip].[am]}$$$$V2.0
- final HPLC purity: 88.0%

Substance: PEPTIDE1{H.[XAib].E.G.T.[XDPhe].T.S.D.[XBip].[XBip].[am]}$$$$V2.0
- final HPLC purity: 89.0%

Substance: PEPTIDE1{H.[XAib].E.G.T.[XPhe2Br].T.S.D.[XBip].[XBip].[am]}$$$$V2.0
- final HPLC purity: 96.0%

Substance: PEPTIDE1{H.[XAib].E.G.T.[XPhe2CF3].T.S.D.[XBip].[XBip].[am]}$$$$V2.0
- final HPLC purity: 98.0%

Substance: PEPTIDE1{H.[XAib].E.G.T.[XPhe2CH3].T.S.D.[XBip].[XBip].[am]}$$$$V2.0
- final HPLC purity: 99.0%

Substance: PEPTIDE1{H.[XAib].E.G.T.[XPhe2CN].T.S.D.[XBip].[XBip].[am]}$$$$V2.0
- final HPLC purity: 80.0%

Substance: PEPTIDE1{H.[XAib].E.G.T.[XPhe2Cl].T.S.D.[XBip].[XBip].[am]}$$$$V2.0
- final HPLC purity: 88.0%

Substance: PEPTIDE1{H.[XAib].E.G.T.[XPhe2F].A.S.D.[XBip].[XBip].[am]}$$$$V2.0
- final HPLC purity: 89%

Substance: PEPTIDE1{H.[XAib].E.G.T.[XPhe2F].T.A.D.[XBip].[XBip].[am]}$$$$V2.0
- final HPLC purity: 87%

Substance: PEPTIDE1{H.[XAib].E.G.T.[XPhe2F].T.S.A.[XBip].[XBip].[am]}$$$$V2.0
- final HPLC purity: 83%

Substance: PEPTIDE1{H.[XAib].E.G.T.[XPhe2F].T.S.D.A.[XBip].[am]}$$$$V2.0
- final HPLC purity: 96%

Substance: PEPTIDE1{H.[XAib].E.G.T.[XPhe2F].T.S.D.[XBip].A.[am]}$$$$V2.0
- final HPLC purity: 92%

Substance: PEPTIDE1{H.[XAib].E.G.T.[XPhe2F].T.S.D.[XBip].[XBip].[am]}$$$$V2.0
- final HPLC purity: 90.0%

Substance: PEPTIDE1{H.[XAib].E.G.T.[XPhe2NO2].T.S.D.[XBip].[XBip].[am]}$$$$V2.0
- final HPLC purity: 91.0%

Substance: PEPTIDE1{H.[XAib].E.G.T.[XPhe3CF3].T.S.D.[XBip].[XBip].[am]}$$$$V2.0
- final HPLC purity: 89.0%

Substance: PEPTIDE1{H.[XAib].E.G.T.[XPhe345F].T.S.D.[XBip].[XBip].[am]}$$$$V2.0
- final HPLC purity: 93.0%

Substance: PEPTIDE1{H.[XAib].E.G.T.[XPhe23456F].T.S.D.[XBip].[XBip].[am]}$$$$V2.0
- final HPLC purity: 92.0%

Substance: PEPTIDE1{H.[XAib].E.G.T.[XhPhe].T.S.D.[XBip].[XBip].[am]}$$$$V2.0
- final HPLC purity: 99.0%
